Assay results taken from the supplement of paper PMC10849652.
This is one part of the list.

By UniProt entry, the sequences of proteins in these tests, tags left out. Where a name states a change or a piece, a line headed by the entry shows the natural chain unless it says otherwise.
UniProt P50053: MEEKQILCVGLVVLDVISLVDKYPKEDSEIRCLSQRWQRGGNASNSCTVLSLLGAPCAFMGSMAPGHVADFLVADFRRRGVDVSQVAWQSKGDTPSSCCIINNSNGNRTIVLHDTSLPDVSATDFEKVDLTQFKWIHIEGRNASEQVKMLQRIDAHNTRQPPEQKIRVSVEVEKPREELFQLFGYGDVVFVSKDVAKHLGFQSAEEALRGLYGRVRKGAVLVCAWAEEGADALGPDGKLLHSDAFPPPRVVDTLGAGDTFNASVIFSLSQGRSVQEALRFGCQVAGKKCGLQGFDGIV
UniProt Q12840: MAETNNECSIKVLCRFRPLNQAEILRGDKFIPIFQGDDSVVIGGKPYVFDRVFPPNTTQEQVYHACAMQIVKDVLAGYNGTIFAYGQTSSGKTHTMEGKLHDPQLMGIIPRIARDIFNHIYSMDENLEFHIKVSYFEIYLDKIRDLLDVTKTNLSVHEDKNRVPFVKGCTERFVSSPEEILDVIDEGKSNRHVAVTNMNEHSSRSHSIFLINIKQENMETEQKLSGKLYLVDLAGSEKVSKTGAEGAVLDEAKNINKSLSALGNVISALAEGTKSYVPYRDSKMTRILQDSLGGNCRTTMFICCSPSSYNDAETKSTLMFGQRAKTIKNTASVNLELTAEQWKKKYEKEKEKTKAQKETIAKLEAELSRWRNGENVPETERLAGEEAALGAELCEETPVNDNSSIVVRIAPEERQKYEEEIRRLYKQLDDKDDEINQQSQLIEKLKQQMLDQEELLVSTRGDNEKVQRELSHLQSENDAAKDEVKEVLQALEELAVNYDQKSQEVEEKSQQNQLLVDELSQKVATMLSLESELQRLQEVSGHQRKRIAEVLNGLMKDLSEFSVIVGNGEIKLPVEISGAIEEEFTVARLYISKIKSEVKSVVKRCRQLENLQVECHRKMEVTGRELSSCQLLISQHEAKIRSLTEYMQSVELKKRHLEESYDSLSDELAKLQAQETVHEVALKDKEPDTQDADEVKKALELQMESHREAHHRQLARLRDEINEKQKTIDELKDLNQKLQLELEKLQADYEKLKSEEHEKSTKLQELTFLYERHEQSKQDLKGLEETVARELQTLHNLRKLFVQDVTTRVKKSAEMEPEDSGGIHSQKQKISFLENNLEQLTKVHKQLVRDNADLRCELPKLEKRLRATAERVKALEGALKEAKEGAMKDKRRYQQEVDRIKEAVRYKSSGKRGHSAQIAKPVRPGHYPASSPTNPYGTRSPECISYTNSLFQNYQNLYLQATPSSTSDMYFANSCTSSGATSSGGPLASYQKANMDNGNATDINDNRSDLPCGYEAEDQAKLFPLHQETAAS
UniProt O00522: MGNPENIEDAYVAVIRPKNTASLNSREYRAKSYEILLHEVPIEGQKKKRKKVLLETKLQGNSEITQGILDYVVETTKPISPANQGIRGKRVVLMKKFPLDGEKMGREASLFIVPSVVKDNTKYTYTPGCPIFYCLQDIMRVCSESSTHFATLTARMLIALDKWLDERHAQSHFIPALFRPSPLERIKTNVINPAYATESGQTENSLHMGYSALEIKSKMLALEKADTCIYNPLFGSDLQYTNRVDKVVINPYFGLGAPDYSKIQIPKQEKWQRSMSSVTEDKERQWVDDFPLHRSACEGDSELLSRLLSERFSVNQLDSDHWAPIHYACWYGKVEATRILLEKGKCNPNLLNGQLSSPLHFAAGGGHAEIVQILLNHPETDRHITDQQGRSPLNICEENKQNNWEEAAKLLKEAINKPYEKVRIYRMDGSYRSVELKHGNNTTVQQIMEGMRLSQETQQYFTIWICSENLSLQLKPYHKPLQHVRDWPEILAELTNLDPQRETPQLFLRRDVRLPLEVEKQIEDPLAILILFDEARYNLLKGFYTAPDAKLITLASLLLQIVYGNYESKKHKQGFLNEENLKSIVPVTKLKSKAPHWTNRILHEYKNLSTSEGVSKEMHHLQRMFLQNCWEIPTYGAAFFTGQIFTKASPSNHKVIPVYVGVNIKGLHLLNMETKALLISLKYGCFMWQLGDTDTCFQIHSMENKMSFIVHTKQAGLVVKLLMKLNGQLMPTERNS
UniProt Q9UK76: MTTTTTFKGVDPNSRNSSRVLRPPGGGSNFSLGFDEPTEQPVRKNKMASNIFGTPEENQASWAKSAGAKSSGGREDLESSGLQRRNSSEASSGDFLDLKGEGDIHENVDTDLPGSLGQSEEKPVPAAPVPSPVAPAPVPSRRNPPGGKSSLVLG
UniProt Q96AT1: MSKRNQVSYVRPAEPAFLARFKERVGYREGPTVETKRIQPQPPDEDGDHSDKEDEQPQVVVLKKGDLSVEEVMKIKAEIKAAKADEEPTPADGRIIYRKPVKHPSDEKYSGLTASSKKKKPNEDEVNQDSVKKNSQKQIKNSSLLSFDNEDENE
UniProt Q8N5M9: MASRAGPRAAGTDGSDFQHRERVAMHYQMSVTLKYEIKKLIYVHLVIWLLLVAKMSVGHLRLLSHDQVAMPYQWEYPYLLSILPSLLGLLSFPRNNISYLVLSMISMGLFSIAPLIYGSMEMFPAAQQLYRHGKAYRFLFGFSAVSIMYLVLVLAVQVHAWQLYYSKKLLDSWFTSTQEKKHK
UniProt Q9BQ90: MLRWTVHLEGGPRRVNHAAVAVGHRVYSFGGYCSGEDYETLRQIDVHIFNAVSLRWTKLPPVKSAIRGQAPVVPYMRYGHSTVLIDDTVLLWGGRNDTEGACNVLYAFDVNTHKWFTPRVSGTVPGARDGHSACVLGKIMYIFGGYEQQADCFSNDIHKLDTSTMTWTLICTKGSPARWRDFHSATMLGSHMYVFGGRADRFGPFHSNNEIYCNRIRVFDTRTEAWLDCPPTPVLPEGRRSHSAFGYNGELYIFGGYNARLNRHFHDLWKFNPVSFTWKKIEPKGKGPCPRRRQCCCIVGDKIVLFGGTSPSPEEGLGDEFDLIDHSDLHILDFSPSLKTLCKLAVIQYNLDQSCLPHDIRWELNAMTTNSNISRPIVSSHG
UniProt O60333: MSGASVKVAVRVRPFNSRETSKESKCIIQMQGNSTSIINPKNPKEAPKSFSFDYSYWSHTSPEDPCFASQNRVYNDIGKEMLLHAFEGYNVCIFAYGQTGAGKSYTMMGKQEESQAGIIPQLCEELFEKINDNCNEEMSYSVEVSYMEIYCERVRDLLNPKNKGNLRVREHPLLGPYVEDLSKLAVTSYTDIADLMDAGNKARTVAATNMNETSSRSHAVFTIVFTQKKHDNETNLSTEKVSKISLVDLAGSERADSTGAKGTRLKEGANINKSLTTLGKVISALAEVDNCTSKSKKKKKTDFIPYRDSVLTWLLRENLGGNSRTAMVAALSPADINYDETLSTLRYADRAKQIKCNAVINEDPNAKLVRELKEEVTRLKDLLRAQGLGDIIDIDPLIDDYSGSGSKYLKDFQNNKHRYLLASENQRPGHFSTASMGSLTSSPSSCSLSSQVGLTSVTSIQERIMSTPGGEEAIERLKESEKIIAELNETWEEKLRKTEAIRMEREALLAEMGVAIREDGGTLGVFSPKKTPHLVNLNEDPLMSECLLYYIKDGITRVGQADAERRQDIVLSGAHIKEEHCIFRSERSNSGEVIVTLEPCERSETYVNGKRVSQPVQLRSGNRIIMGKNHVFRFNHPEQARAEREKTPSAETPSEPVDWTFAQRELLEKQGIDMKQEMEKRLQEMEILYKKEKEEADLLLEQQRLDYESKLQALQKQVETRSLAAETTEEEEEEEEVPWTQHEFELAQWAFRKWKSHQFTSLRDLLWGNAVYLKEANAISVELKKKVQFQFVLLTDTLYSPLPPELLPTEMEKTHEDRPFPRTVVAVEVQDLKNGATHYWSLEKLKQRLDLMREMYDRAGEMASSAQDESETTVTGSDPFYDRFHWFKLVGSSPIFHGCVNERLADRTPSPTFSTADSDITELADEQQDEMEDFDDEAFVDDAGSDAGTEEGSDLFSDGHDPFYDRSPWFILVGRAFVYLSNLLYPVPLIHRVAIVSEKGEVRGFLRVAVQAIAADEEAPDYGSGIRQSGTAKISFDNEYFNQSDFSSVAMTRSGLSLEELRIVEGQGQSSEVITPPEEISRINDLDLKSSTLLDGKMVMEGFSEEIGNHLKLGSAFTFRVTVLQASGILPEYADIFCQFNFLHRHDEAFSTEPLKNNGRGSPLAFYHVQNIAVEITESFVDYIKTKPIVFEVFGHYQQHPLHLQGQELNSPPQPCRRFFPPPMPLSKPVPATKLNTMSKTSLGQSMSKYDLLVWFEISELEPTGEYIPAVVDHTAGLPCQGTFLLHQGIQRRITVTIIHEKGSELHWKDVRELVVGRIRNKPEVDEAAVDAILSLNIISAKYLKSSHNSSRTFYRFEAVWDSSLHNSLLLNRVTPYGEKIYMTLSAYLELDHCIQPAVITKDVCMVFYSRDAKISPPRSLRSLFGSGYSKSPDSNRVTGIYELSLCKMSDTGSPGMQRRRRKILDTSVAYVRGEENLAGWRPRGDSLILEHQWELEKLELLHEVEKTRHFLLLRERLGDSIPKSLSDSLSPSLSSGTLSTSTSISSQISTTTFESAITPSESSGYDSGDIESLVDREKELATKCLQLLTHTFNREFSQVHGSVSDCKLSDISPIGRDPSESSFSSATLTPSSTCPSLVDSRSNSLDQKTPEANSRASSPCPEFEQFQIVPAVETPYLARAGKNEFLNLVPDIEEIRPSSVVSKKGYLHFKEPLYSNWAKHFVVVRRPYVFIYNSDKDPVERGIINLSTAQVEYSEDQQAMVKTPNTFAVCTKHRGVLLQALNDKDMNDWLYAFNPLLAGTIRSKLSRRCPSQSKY
UniProt Q9NVR0: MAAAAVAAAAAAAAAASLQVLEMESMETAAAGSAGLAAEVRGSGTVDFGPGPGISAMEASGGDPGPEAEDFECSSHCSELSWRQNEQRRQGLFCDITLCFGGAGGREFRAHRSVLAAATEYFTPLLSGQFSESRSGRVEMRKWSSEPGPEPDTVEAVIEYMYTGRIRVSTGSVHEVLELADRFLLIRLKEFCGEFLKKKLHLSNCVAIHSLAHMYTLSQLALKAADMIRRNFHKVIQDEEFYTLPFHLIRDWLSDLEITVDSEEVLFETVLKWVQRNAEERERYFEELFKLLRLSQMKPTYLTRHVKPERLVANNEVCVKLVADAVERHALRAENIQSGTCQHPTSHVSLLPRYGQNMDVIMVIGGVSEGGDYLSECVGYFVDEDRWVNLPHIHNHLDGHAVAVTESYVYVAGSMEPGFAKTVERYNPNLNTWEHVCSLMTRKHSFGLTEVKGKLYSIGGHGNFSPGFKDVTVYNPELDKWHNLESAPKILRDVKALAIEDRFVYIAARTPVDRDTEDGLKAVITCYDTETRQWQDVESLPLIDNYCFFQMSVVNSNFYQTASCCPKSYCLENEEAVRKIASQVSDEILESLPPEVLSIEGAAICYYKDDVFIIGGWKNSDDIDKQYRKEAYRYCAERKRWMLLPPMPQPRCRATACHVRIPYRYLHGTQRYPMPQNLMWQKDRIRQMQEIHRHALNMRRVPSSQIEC
UniProt A8MWY0: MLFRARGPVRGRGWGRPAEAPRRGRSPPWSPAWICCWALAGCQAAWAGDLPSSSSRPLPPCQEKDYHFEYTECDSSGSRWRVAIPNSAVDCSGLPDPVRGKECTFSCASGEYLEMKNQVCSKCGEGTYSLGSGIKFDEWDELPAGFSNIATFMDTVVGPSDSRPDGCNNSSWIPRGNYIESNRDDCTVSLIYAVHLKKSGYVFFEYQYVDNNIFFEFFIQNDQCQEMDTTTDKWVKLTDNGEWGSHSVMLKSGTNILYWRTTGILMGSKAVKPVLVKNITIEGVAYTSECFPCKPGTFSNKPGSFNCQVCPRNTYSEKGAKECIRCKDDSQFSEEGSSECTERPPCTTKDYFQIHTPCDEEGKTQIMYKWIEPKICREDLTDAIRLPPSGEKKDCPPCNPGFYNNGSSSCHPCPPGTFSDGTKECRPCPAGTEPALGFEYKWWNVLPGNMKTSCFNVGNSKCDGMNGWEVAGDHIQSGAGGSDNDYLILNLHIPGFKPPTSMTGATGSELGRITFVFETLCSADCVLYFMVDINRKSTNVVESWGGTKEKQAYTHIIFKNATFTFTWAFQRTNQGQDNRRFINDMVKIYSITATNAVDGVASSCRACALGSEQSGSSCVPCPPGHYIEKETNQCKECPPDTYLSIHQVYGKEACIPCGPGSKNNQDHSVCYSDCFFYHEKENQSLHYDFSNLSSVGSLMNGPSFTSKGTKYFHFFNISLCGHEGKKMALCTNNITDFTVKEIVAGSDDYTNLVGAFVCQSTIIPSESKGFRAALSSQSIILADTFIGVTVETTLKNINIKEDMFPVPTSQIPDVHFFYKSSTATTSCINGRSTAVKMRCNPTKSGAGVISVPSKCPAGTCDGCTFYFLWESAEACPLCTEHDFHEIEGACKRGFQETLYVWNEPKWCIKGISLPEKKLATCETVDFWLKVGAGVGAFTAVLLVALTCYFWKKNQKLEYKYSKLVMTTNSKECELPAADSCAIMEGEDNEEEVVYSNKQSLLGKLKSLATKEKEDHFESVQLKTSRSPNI

Columns and labels:
Assay in all cases: log2 fold change, soluble protein after heating vs DMSO (PISA); higher = thermal stabilisation; K562 cells, 10 uM, 30 min; active = over 0.2 and 3.5 SD of the protein, either way, in both replicates (recomputed)
[1] = compound: Cc1ccc(NC(=O)c2ccc(CN3CC[C@H](N(C)C)C3)c(C(F)(F)F)c2)cc1Nc1nccc(-c2cncnc2)n1 [bafetinib]
Method in brief: (§1)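 Values are thermal stability changes relative to control samples and are taken from duplicates. They are stated as log2 fold changes. Before quantification by TMTpro 16plex LC-MS/MS with equalised channel sums, K562 cells at 2×10^6 cells/mL were treated with 10 μM compound for 30 min, heated in aliquots for 3 min across 48°C-58°C, pooled, extracted in PBS with 0.5% NP-40 at 4°C, and centrifuged at 21,000xg for 90 min to give the soluble supernatant.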

[2] = compound: Cc1cccc(CC(=O)N2CCc3c2ccc(-c2cn(C)c4ncnc(N)c24)c3F)n1
Method in brief: as §1

[3] = compound: Cc1cn(-c2cc(NC(=O)c3ccc(C)c(Nc4nccc(-c5cccnc5)n4)c3)cc(C(F)(F)F)c2)cn1 [nilotinib]
Method in brief: as §1

[4] = compound: Cc1nc(Nc2n[nH]c3c2CN(C(=O)N[C@H](CN(C)C)c2ccccc2)C3(C)C)c2sccc2n1
Method in brief: as §1

[5] = compound: Cc1nc(Nc2ncc(C(=O)Nc3c(C)cccc3Cl)s2)cc(N2CCN(CCO)CC2)n1 [dasatinib]
Method in brief: as §1

[6] = compound: Cc1ncc(-c2ccnc(Nc3ccc(S(C)(=O)=O)cc3)n2)n1C(C)C
Method in brief: as §1

[7] = compound: Cn1cc(-c2ccc3c(c2)CCN3C(=O)Cc2cccc(C(F)(F)F)c2)c2c(N)ncnc21
Method in brief: as §1

[8] = compound: Cn1cc(-c2ccc3nnc(C(F)(F)c4ccc5ncccc5c4)n3n2)cn1
Method in brief: as §1

[9] = compound: Cn1cncc1[C@@](N)(c1ccc(Cl)cc1)c1ccc2c(c1)c(-c1cccc(Cl)c1)cc(=O)n2C [tipifarnib]
Method in brief: as §1

[10] = compound: FC(F)(F)c1ccc(/C=C/c2nc(COc3ccc(CCCCn4ccnn4)cc3)co2)cc1 [mubritinib]
Method in brief: as §1

Measured: log2 fold change

KHK isoform 2 (UniProt P50053)
inactive: [1] 0.009 | [2] -0.009 | [3] -0.076 | [4] 0.018 | [5] 0.071 | [6] 0.039 | [7] 0.002 | [8] -0.06 | [9] 0.005 | [10] 0.031

KMT2D isoform 3 (UniProt O14686)
inactive: [1] 0.03 | [2] 0.046 | [3] 0.057 | [4] -0.07 | [5] -0.101 | [6] 0 | [7] -0.062 | [8] -0.04 | [9] -0.015 | [10] -0.007

KIF13A (UniProt Q9H1H9)
inactive: [1] -0.033 | [2] -0.095 | [3] 0.012 | [4] -0.01 | [5] -0.044 | [6] 0.008 | [7] 0.029 | [8] -0.032 | [9] -0.014 | [10] 0.024

KPNA6 (UniProt O60684)
inactive: [1] -0.071 | [2] 0.078 | [3] -0.054 | [4] -0.038 | [5] -0.067 | [6] 0.003 | [7] -0.098 | [8] -0.015 | [9] -0.033 | [10] -0.067

KIAA2013 isoform 2 (UniProt Q8IYS2)
inactive: [1] -0.07 | [2] -0.022 | [3] -0.006 | [4] 0.004 | [5] 0.011 | [6] -0.008 | [7] 0.022 | [8] 0.003 | [9] 0.065 | [10] 0.017

JPT2 isoform 3 (UniProt Q9H910)
inactive: [1] -0.007 | [2] -0.04 | [3] 0.029 | [4] 0.009 | [5] 0.04 | [6] -0.008 | [7] 0.006 | [8] -0.046 | [9] 0.039 | [10] 0.024

KIF5A (UniProt Q12840)
inactive: [1] -0.021 | [2] 0.081 | [3] -0.013 | [4] 0.027 | [5] -0.024 | [6] 0.033 | [7] 0.018 | [8] -0.017 | [9] -0.005 | [10] 0.006

KRIT1 (UniProt O00522)
inactive: [1] 0.009 | [2] 0.054 | [3] 0.198 | [4] 0.003 | [5] -0.109 | [6] 0.035 | [7] -0.174 | [8] -0.064 | [9] -0.034

KDM3B (UniProt Q7LBC6)
inactive: [1] -0.005 | [2] 0.038 | [3] -0.009 | [4] -0.098 | [5] -0.136 | [6] 0.042 | [7] -0.032 | [8] 0.006 | [9] 0.018 | [10] 0.002

KHDRBS1 (UniProt Q07666)
inactive: [1] 0.041 | [2] 0.007 | [3] 0.035 | [4] 0.02 | [5] 0.012 | [6] 0.07 | [7] 0.025 | [8] -0.024 | [9] 0.017 | [10] 0.021

JPT1 (UniProt Q9UK76)
inactive: [1] -0.024 | [2] -0.051 | [3] 0.073 | [4] -0.006 | [5] 0.039 | [6] 0.007 | [7] 0.043 | [8] -0.006 | [9] 0.015 | [10] 0.046

KIAA1143 (UniProt Q96AT1)
inactive: [1] -0.204 | [2] -0.004 | [3] 0.034 | [4] -0.021 | [5] 0.048 | [6] -0.007 | [7] -0.008 | [8] -0.042 | [9] 0.098 | [10] 0.065

KHSRP (UniProt Q92945)
inactive: [1] -0.052 | [2] -0.033 | [3] 0.02 | [4] 0.015 | [5] 0.031 | [6] -0.017 | [7] 0.019 | [8] 0.005 | [9] 0.012 | [10] 0.026

KATNB1 (UniProt Q9BVA0)
inactive: [1] 0.062 | [2] 0.011 | [3] 0.021 | [4] -0.116 | [5] -0.12 | [6] -0.033 | [7] -0.018 | [8] 0.01 | [9] -0.072 | [10] 0.01

KIF5B (UniProt P33176)
inactive: [1] 0.01 | [2] 0.005 | [3] 0.007 | [4] -0.026 | [5] -0.054 | [6] -0.002 | [7] 0.033 | [8] -0.025 | [9] -0.034 | [10] 0.041

KATNA1 (UniProt O75449)
inactive: [1] 0.076 | [2] 0.04 | [3] 0.017 | [4] -0.001 | [5] 0.028 | [6] -0.016 | [7] 0.018 | [8] -0.023 | [9] -0.03 | [10] 0.022

JAGN1 (UniProt Q8N5M9)
inactive: [1] -0.061 | [2] -0.152 | [3] 0.015 | [4] 0.053 | [5] 0.06 | [6] -0.039 | [7] 0.068 | [8] 0.079 | [9] -0.059 | [10] 0.005

JMJD1C (UniProt Q15652)
inactive: [1] -0.031 | [2] 0.118 | [3] -0.057 | [4] -0.083 | [5] -0.101 | [6] 0.052 | [7] 0.093 | [8] 0.005 | [9] 0.027 | [10] 0.127

Looked up one by one from above, 2 records:
JMJD1C (UniProt Q15652)
inactive: [1] -0.031 | [2] 0.118 | [3] -0.057 | [4] -0.083 | [5] -0.101 | [6] 0.052 | [7] 0.093 | [8] 0.005 | [9] 0.027 | [10] 0.127

KATNB1 (UniProt Q9BVA0)
inactive: [1] 0.062 | [2] 0.011 | [3] 0.021 | [4] -0.116 | [5] -0.12 | [6] -0.033 | [7] -0.018 | [8] 0.01 | [9] -0.072 | [10] 0.01

Next records follow.

KCNK1 (UniProt O00180)
inactive: [1] -0.114 | [2] 0.029 | [3] 0.184 | [4] -0.117 | [5] 0.254 | [6] -0.073 | [7] 0.032 | [8] -0.083 | [9] 0.123

KCNAB2 (UniProt Q13303)
inactive: [1] -0.159 | [2] -0.047 | [3] -0.026 | [4] 0.123 | [5] -0.025 | [6] -0.002 | [7] -0.018 | [8] -0.002 | [9] -0.054 | [10] 0.03

KLHDC3 (UniProt Q9BQ90)
inactive: [1] -0.166 | [2] 0.003 | [3] 0.029 | [4] 0.007 | [5] 0.173 | [6] -0.008 | [7] -0.042 | [8] 0.009 | [9] 0.04

KIFBP (UniProt Q96EK5)
inactive: [1] 0.006 | [2] 0.094 | [3] -0.162 | [4] -0.079 | [5] -0.114 | [6] -0.004 | [7] -0.084 | [8] -0.046 | [9] -0.063 | [10] -0.078

KIAA1191 (UniProt Q96A73)
inactive: [1] -0.07 | [2] 0.042 | [3] -0.071 | [4] -0.035 | [5] -0.048 | [6] 0.006 | [7] 0.008 | [8] -0.033 | [9] 0.014 | [10] -0.071

KNSTRN (UniProt Q9Y448)
inactive: [1] -0.022 | [2] -0.037 | [3] -0.003 | [4] -0.108 | [5] 0.007 | [6] 0.01 | [7] -0.152 | [8] -0.034 | [9] 0.043 | [10] -0.057

KDM2B (UniProt Q8NHM5)
inactive: [1] 0.058

KRT87P (UniProt A6NCN2)
inactive: [1] 1.25

KIF1B isoform 4 (UniProt O60333)
inactive: [1] -0.056 | [2] -0.004 | [3] 0.01 | [4] 0.073 | [5] -0.066 | [6] -0.064 | [7] -0.044 | [8] 0.033 | [9] -0.004 | [10] -0.004

KARS1 (UniProt Q15046)
inactive: [1] 0.004 | [2] 0.141 | [3] 0.034 | [4] 0.032 | [5] 0.072 | [6] -0.004 | [7] -0.135 | [8] -0.116 | [9] 0.033 | [10] -0.057

KLHL11 (UniProt Q9NVR0)
inactive: [1] -0.062 | [2] -0.003 | [3] 0.097 | [4] -0.127 | [5] -0.193 | [6] -0.077 | [7] 0.029 | [8] -0.143 | [9] -0.019 | [10] 0.108

KIAA1324L (UniProt A8MWY0)
inactive: [1] -0.099 | [2] 0.022 | [3] 0.042 | [4] -0.031 | [5] 0.025 | [6] -0.003 | [7] 0.022 | [8] 0.029 | [9] 0.047 | [10] 0.091

KEAP1 (UniProt Q14145)
inactive: [1] -0.057 | [2] 0.032 | [3] -0.108 | [4] -0.108 | [5] -0.027 | [6] 0.021 | [7] -0.085 | [8] -0.07 | [9] -0.047 | [10] 0.037

KPNB1 (UniProt Q14974)
inactive: [1] 0.029 | [2] 0.029 | [3] -0.129 | [4] -0.09 | [5] -0.072 | [6] -0.018 | [7] -0.09 | [8] -0.045 | [9] -0.12 | [10] 0.019
